# Among all 340,000 compounds or so, about 170 (0.05%) were called active. Inconclusive means that the source gave no clear call. Such entries were picked first, then a sample of the others. Calls come from the whole dose curve; as a rule, active = well fitted inhibition curve with a large enough effect in the signal ratio, with a control signal flat (not every such curve was filed as active); inconclusive = small, poorly fitted or top-dose-only effect, or effect the other way, or a change in a side signal; inactive = flat fitted curve, though single readings scatter; the % refers to the signal ratio. Where the call is inconclusive, the potency comes from a doubtful curve fit.
# Assay: qHTS Assay to Find Inhibitors of Chronic Active B-Cell Receptor Signaling;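 for activity change, negative = inhibition: plate controls were basal doxycycline-induced cells for no effect and cells given 10 µM MG132 for full effect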
# Details: ABC-DLBCL IkBa-CBG/CBR reporter, luminescence ratio (green luciferase fused to IkBa over red control in TMD8 lymphoma cells), 4 h; activity change, negative = inhibition: at 46.1 µM (top of the series) unless noted
# How it was run: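 TMD8 ABC-DLBCL cells carrying doxycycline-inducible green luciferase fused to IkappaBalpha plus unfused red luciferase were exposed to compounds (up to 46 uM) for 4 hrs at 37C. Activity came from the overlap-corrected green/red luminescence ratio.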
# Potency is the fitted concentration of half-maximal effect.
Compound,"activity change, negative = inhibition",Potency
Fc1ccccc1/C=N/n1cnnc1,inconclusive: 2.44%,
c1ccc(C[n+]2c(-c3ccccc3)csc2Nc2ccccc2)cc1,inconclusive: 18%,
CC(C)c1ccc(NC(=O)CNCC(c2ccccc2)N(C)C)cc1 (configuration not stated),inconclusive: -25.4%,
CC(C)c1nnc(NC(=O)C2CCCN2C(=O)Nc2ccc(F)cc2)s1 (configuration not stated),inactive,
O=C(C1CC1)N1CCC(c2nc(-c3ccc(S(=O)(=O)NCC4CCCO4)cc3)no2)CC1 (configuration not stated),inconclusive: 0.234%,
CC(OC(=O)c1ccc(F)c(S(=O)(=O)N2CCOCC2)c1)C(=O)NC1CCCC1 (configuration not stated),inactive,
CCOCCCNC(=O)c1oc2ccc(S(=O)(=O)N3CCOCC3)cc2c1C,inconclusive: 10.9%,
CC(C(=O)NCc1ccco1)n1ccc2cc(S(=O)(=O)N3CCCCC3)ccc21 (configuration not stated),inactive,
COc1ccc(CSc2nc(N3CCOCC3)c3c(c2C#N)CC(C)(C)OC3)cc1,inconclusive: -0.43%,
O=C(CN1C(=O)S/C(=C\c2cc(Cl)c(O)c(Cl)c2)C1=O)Nc1ccccc1,inconclusive: -5.6%,
O=C(NC1CCCCC1)C(=O)N(Cc1cccnc1)C(C(=O)NCc1ccco1)c1ccccc1 (configuration not stated),inactive,
Cc1ccc(C)c(N(CC(=O)NC2CCCCC2)C(=O)c2snc(C(N)=O)c2N)c1,inconclusive: 8.51%,
CCOC(=O)C1CCCN(C(=O)c2cc(S(=O)(=O)Nc3ccccc3OC)ccc2C)C1 (configuration not stated),inconclusive: 2.25%,
COC(=O)c1sc(N2C(=O)C(O)=C(C(=O)c3ccc(C)o3)C2c2ccc(OC)c(OC)c2)nc1C (configuration not stated),inactive,
COc1ccc(-c2cn3c(C)c(C(=O)Nc4cccc(NC(C)=O)c4)sc3n2)cc1,inactive,
CC(C)Cn1c(N)c(C(=O)NCc2cccs2)c2nc3ccccc3nc21,,"inconclusive: 5.8 µM [rising, partial curve, poor fit]"
Cc1cc(C)c2sc(N3CCN(C(=O)c4ccc(N(C)C)cc4)CC3)nc2c1,,"inconclusive: 7.08 µM [falling, partial curve, poor fit]"
COc1cccc(-c2nnc3sc(-c4cccs4)nn23)c1,inconclusive: 0.414%,
COc1cc(C(=O)NCCCc2ccccc2)cc(OC)c1OC,inconclusive: 3.3%,
COc1ccccc1/C=C/C(=O)N1CCC(c2ccccc2)C1 (configuration not stated),,"inconclusive: 2.91 µM [falling, partial curve]"
Cc1sc2ncnc(N/N=C/c3ccccc3O)c2c1C,inconclusive: -8.73%,

Compound,"activity change, negative = inhibition",Potency
COc1cc(C)nc(NCc2ccccc2)n1,inconclusive: 0.482%,
O=c1[nH]c(SCc2ccccc2)nnc1-c1ccccc1,,"inconclusive: 29.1 µM [rising, single point]"
COc1cc(CNC2CCCCC2OC)cc(OC)c1 (configuration not stated),inconclusive: -2.24%,
Clc1ccc(OCCCCCN2CCOCC2)cc1,inconclusive: 6.06%,
Cc1cc(C)cc(OCc2nnc(SCC(=O)c3ccc(Br)cc3)o2)c1,inconclusive: 6.63%,
COc1ccccc1-n1nc(C)cc1N,,"inconclusive: 0.891 µM [falling, partial curve, poor fit]"
Clc1ccc(CN2CCCCCCC2)cc1,inactive,
Cc1ccc(C)c(S(=O)(=O)N2CCN(C(=O)CSC(=S)N3CCCC3)CC2)c1,inconclusive: -0.337%,
CCOc1ccc(-c2nc(N)ncc2Oc2cccc(OC)c2)c(O)c1,,"inconclusive: 4.61 µM [falling, full curve, poor fit]"
Cn1ncc(C(=O)N=S(C)(=O)c2ccccc2)c1[N+](=O)[O-] (configuration not stated),inconclusive: -19.7%,
O=C(Nc1ccccc1Cl)C1Cc2ccccc2O/C1=N\O (configuration not stated),inconclusive: 5.88%,
CC(C)(C)NC(=O)COC(=O)c1ccccc1Nc1ccc(SC(F)F)cc1,inconclusive: -16.7%,
Fc1ccc(C2=Nn3c(nnc3-c3n[nH]c4c3CCC4)SC2)cc1,inconclusive: -13.7%,
C/C(=N\Nc1ncc(Cl)cc1Cl)c1ccc(C#N)cc1,inconclusive: 6.15%,
Oc1ccc(CNc2cccc(F)c2F)c2cccnc12,inconclusive: -19.8%,
S=C1NC2CCCCC2N1 (configuration not stated),inactive,
Cc1ccc(S(=O)(=O)N2C/C=C\CN(S(=O)(=O)c3ccccc3Br)CC2)cc1,inconclusive: -2.79%,
Cn1nc(-c2ccccc2F)c2cc(C(=O)Nc3ccc4c(c3)OCCO4)sc21,inconclusive: -10.1%,
O=C(N1CCCC1)C12CC3CC(C1)CC(C(=O)N1CCCC1)(C3)C2,inconclusive: 23%,
CCN(CC)CCCn1c2c(c(SCC(=O)Nc3cc(OC)cc(OC)c3)nc1=O)CCC2,inconclusive: -0.373%,
COc1ccc(N(CC(=O)NC2CCCCC2)C(=O)CCC(=O)Nc2nc(C)cs2)cc1OC,inactive,

# Reprinted at random: 4 compounds from above
Compound,"activity change, negative = inhibition",Potency
Clc1ccc(OCCCCCN2CCOCC2)cc1,inconclusive: 6.06%,
Cn1ncc(C(=O)N=S(C)(=O)c2ccccc2)c1[N+](=O)[O-] (configuration not stated),inconclusive: -19.7%,
Fc1ccc(C2=Nn3c(nnc3-c3n[nH]c4c3CCC4)SC2)cc1,inconclusive: -13.7%,
COc1ccccc1-n1nc(C)cc1N,,"inconclusive: 0.891 µM [falling, partial curve, poor fit]"

# Remaining list, next part

Compound,"activity change, negative = inhibition",Potency
COc1ccc(C(=O)CC(=O)c2ccccc2O)cc1OC,inconclusive: 2.46%,
O=C(/C=C/c1ccco1)NC(=S)NNC(=O)c1ccco1,,"inconclusive: 6.51 µM [falling, partial curve, poor fit]"
O=C(NCCSc1ccccc1)c1cccnc1,inconclusive: 13%,
Cc1cccc(NC(=O)CSCC(=O)N(C)Cc2c(F)cccc2Cl)c1,inactive,
CCCOc1ccc(CNC(=S)Nc2ccccc2)cc1Cl,inactive,
Cc1cccc(-n2c(C)cc(/C=C3/C(=N)N4C(c5ccccc5)=CSC4=NC3=O)c2C)c1,inconclusive: 9.43%,
COc1cc(SC)ccc1C(=O)NCCc1ccccc1,inactive,
COc1cc(N=c2ssnc2Cl)cc(OC)c1OC,,"inconclusive: 14.1 µM [falling, partial curve, poor fit]"
OCCC1CN(Cc2cc(F)ccc2-n2cccn2)CCN1C1CCCC1 (configuration not stated),inconclusive: 2.32%,
COC(=O)c1ccc(CSc2nnc(NC(=O)C3CC(=O)N(Cc4ccc(C)cc4)C3)s2)cc1 (configuration not stated),inconclusive: 0.222%,
Cn1c(N)c(C(=O)COC(=O)[C@H](Cc2ccccc2)N2C(=O)c3ccccc3C2=O)c(=O)n(C)c1=O,inconclusive: 3.87%,
CSc1ccc(CN2C(=O)NC3(CCCCCCC3)C2=O)cc1,,"inconclusive: 7.08 µM [rising, partial curve, poor fit]"
Cc1oc(-c2ccccc2)cc1C(=O)NCc1ccncc1,,"inconclusive: 2 µM [rising, full curve]"
Cc1nc([N+](=O)[O-])c(Sc2nc3ccccc3[nH]2)n1Cc1ccccc1,inconclusive: 18%,
O=C(N/N=C/c1ccccc1O)C(=O)Nc1ccccn1,,"inconclusive: 11.2 µM [falling, partial curve]"
CC1=NN(C(N)=S)C(=O)C1N=Nc1cccc2ccccc12 (configuration not stated),inconclusive: 14.1%,
O=[N+]([O-])c1ccc(N=Nc2c(Cl)cc(O)cc2Cl)cc1,inconclusive: 7.52%,
CSc1cccc(NC(=S)N2CCCN(Cc3cccc(Cl)c3)C2)c1,inconclusive: 0.673%,
N/C(CCS(=O)(=O)c1ccc(Cl)cc1)=N\OC(=O)c1ccccc1Cl,inconclusive: 9.97%,
O=C(Nc1cc2c3c(c1)CC(=O)N3CCC2)C1CC1,inconclusive: 15.5%,
CCS(=O)(=O)c1nc(S(=O)(=O)c2ccc(C)cc2)c(N2CCC3(CC2)OCCO3)s1,inconclusive: -1.36%,

Compound,"activity change, negative = inhibition",Potency
O=S1(=O)CC(O)C(N(CCO)C(=S)Nc2ccccc2)C1 (configuration not stated),inconclusive: 9.02%,
Cc1ccc(C)c(-c2ccc(=O)n(Cc3c(F)cccc3Cl)n2)c1,inactive,
Cc1cccc(N2CCN(S(=O)(=O)c3ccc4c(c3)NC(=O)CS4)CC2)c1C,inconclusive: 9.13%,
COCCCn1c(C23CC4CC(CC(C4)C2)C3)n[nH]c1=S,inconclusive: -0.0976%,
CCOC(=O)c1c(C)n(C)c2ccc(O)c(CN(CC)CC)c12,,"inconclusive: 1.16 µM [falling, partial curve]"
COc1ccc(/C=C(\C#N)C(=O)OC2CCOC2=O)cc1 (configuration not stated),inconclusive: -1.02%,
COc1ccc(NC(=O)c2ccc3c(c2)NC(=O)CS3)cc1S(=O)(=O)Nc1ccc(Br)cc1,,"inconclusive: 35.5 µM [falling, single point]"
O=C(CCN1CCCCC1)NNC(=S)NC(=O)c1ccc(Br)cc1,inconclusive: -19.2%,
O=C1C=C(c2ccc3[nH]ccc3c2)C[C@@H](c2ccc(F)cc2)C1,inconclusive: 8.17%,
O=c1c(-c2ccccc2)c[nH]n1-c1cccc([N+](=O)[O-])c1,,"inconclusive: 3.98 µM [rising, full curve, poor fit]"
O=C(/C=C/c1ccccc1)NC1CCCc2ccccc21 (configuration not stated),,"inconclusive: 0.891 µM [falling, full curve, poor fit]"
CN(N=Nc1cccc([N+](=O)[O-])c1)c1cccc([N+](=O)[O-])c1,inconclusive: 13.7%,
COc1ccc(CCNC(=O)CC2SC(=NCCc3ccccc3)NC2=O)cc1OC (configuration not stated),inconclusive: -2.67%,
O=C(CCCCCCCCC(=O)N/N=C/c1ccco1)N/N=C/c1ccco1,inconclusive: -10.5%,
COc1ccc(OC)c(NC(=O)CNC(=O)Cn2c(C)cc3ccccc3c2=O)c1,,"inconclusive: 16.4 µM [falling, single point]"
CC(O)c1cccc(NC(=O)C2CCCCC2)c1 (configuration not stated),inconclusive: 7.6%,
Cc1ccc(NC(=O)/C=C/c2ccc([N+](=O)[O-])s2)c(C)c1,,"inconclusive: 5.17 µM [falling, partial curve]"
Cc1ccsc1/C=N/NC(=O)Nc1ccccc1,,"inconclusive: 31.6 µM [falling, single point]"
C[C@@H](C(=O)NCc1ccccc1)N1C(=O)C2CC=CCC2C1=O (some centres not stated),inconclusive: -2.36%,

# From PubChem BioAssay AID493014 (National Center for Advancing Translational Sciences (NCATS), 2011)
